The values that follow come from the supplement of paper PMC8728848.

This is one part of the list.

Experiment in all cases: glycan array binding signal (z-score within array); higher = stronger binding
Common to all, as to details: glycan notation: IUPAC condensed, linker removed

For assay [1], the target named is Gal(b1-4)GlcNAc(b1-3)Gal(b1-4)GlcNAc(b1-3)Gal(b1-4)GlcNAc(b1-3)Gal(b1-4)GlcNAc(b1-2)Man(a1-3)[Gal(b1-4)GlcNAc(b1-3)Gal(b1-4)GlcNAc(b1-3)Gal(b1-4)GlcNAc(b1-3)Gal(b1-4)GlcNAc(b1-2)Man(a1-6)]Man(b1-4)GlcNAc(b1-4)GlcNAc. A digest of the protocol: (§1)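 From the Consortium for Functional Glycomics database, 3228 arrays were curated, keeping only those whose protein sequence was available. Binding is given as a within-array Z-score averaged across arrays sharing a protein sequence and across linkers. Negative Z-scores can be read as non-binding.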

For assay [2], the target named is Gal(b1-4)GlcNAc(b1-3)Gal(b1-4)GlcNAc(b1-3)Gal(b1-4)GlcNAc(b1-3)Gal(b1-4)GlcNAc(b1-2)Man(a1-3)[Gal(b1-4)GlcNAc(b1-3)Gal(b1-4)GlcNAc(b1-3)Gal(b1-4)GlcNAc(b1-3)Gal(b1-4)GlcNAc(b1-2)Man(a1-6)]Man(b1-4)GlcNAc(b1-4)[Fuc(a1-6)]GlcNAc. The procedure, abridged:
as §1

Assay [3] concerns the target Gal(b1-4)GlcNAc(b1-3)Gal(b1-4)GlcNAc(b1-3)Gal(b1-4)GlcNAc(b1-3)Gal(b1-4)GlcNAc(b1-2)[Gal(b1-4)GlcNAc(b1-3)Gal(b1-4)GlcNAc(b1-3)Gal(b1-4)GlcNAc(b1-3)Gal(b1-4)GlcNAc(b1-6)]Man(a1-6)[Gal(b1-4)GlcNAc(b1-3)Gal(b1-4)GlcNAc(b1-3)Gal(b1-4)GlcNAc(b1-3)Gal(b1-4)GlcNAc(b1-2)Man(a1-3)]Man(b1-4)GlcNAc(b1-4)[Fuc(a1-6)]GlcNAc. The procedure, abridged: as §1
Assay [4] concerns the target Gal(b1-4)GlcNAc(b1-3)Gal(b1-4)GlcNAc(b1-3)Gal(b1-4)GlcNAc(b1-3)Gal(b1-4)GlcNAc(b1-3)Gal(b1-4)GlcNAc(b1-2)Man(a1-3)[Gal(b1-4)GlcNAc(b1-3)Gal(b1-4)GlcNAc(b1-3)Gal(b1-4)GlcNAc(b1-3)Gal(b1-4)GlcNAc(b1-3)Gal(b1-4)GlcNAc(b1-2)Man(a1-6)]Man(b1-4)GlcNAc(b1-4)GlcNAc. A digest of the protocol: as §1
The target in assay [5] is Gal(b1-4)GlcNAc(b1-3)Gal(b1-4)GlcNAc(b1-3)Gal(b1-4)GlcNAc(b1-3)Gal(b1-4)GlcNAc(b1-3)Gal(b1-4)GlcNAc(b1-2)Man(a1-3)[Gal(b1-4)GlcNAc(b1-3)Gal(b1-4)GlcNAc(b1-3)Gal(b1-4)GlcNAc(b1-3)Gal(b1-4)GlcNAc(b1-3)Gal(b1-4)GlcNAc(b1-2)Man(a1-6)]Man(b1-4)GlcNAc(b1-4)[Fuc(a1-6)]GlcNAc. A digest of the protocol:
as §1

Assay [6] addresses Gal(b1-4)GlcNAc(b1-3)Gal(b1-4)GlcNAc(b1-3)Gal(b1-4)GlcNAc(b1-3)Gal(b1-4)GlcNAc(b1-3)Gal(b1-4)GlcNAc(b1-2)[Gal(b1-4)GlcNAc(b1-3)Gal(b1-4)GlcNAc(b1-3)Gal(b1-4)GlcNAc(b1-3)Gal(b1-4)GlcNAc(b1-3)Gal(b1-4)GlcNAc(b1-6)]Man(a1-6)[Gal(b1-4)GlcNAc(b1-3)Gal(b1-4)GlcNAc(b1-3)Gal(b1-4)GlcNAc(b1-3)Gal(b1-4)GlcNAc(b1-3)Gal(b1-4)GlcNAc(b1-2)Man(a1-3)]Man(b1-4)GlcNAc(b1-4)[Fuc(a1-6)]GlcNAc. A digest of the protocol:
as §1

Assay [7] concerns the target Gal(b1-4)GlcNAc(b1-3)Gal(b1-4)GlcNAc(b1-3)Gal(b1-4)GlcNAc(b1-3)Gal(b1-4)GlcNAc(b1-3)Gal(b1-4)GlcNAc(b1-3)Gal(b1-4)GlcNAc(b1-2)Man(a1-3)[Gal(b1-4)GlcNAc(b1-3)Gal(b1-4)GlcNAc(b1-3)Gal(b1-4)GlcNAc(b1-3)Gal(b1-4)GlcNAc(b1-3)Gal(b1-4)GlcNAc(b1-3)Gal(b1-4)GlcNAc(b1-2)Man(a1-6)]Man(b1-4)GlcNAc(b1-4)GlcNAc. A digest of the protocol: as §1
Assay [8] concerns the target Gal(b1-4)GlcNAc(b1-3)Gal(b1-4)GlcNAc(b1-3)GalNAc. The procedure, abridged: as §1
For assay [9], the target named is Gal(b1-4)GlcNAc(b1-3)Gal(b1-4)GlcNAc(b1-3)[Gal(b1-4)GlcNAc(b1-3)Gal(b1-4)GlcNAc(b1-6)]GalNAc. A digest of the protocol:
as §1

For assay [10], the target named is Gal(b1-4)GlcNAc(b1-3)Gal(b1-4)GlcNAc(b1-6)[Gal(b1-3)]GalNAc. A digest of the protocol: as §1
The target of assay [11] is Gal(b1-4)GlcNAc(b1-3)Gal(b1-4)[Fuc(a1-3)]GlcNAc(b1-3)Gal(b1-4)[Fuc(a1-3)]GlcNAc. A digest of the protocol:
as §1

Assay [12] has as its target Gal(b1-4)GlcNAc(b1-3)GalNAc. A digest of the protocol:
as §1

The target of assay [13] is Gal(b1-4)GlcNAc(b1-3)[Fuc(a1-3)GlcNAc(b1-6)]Gal(b1-4)Glc. The procedure, abridged:
as §1

Assay [14] deals with Gal(b1-4)GlcNAc(b1-3)[Gal(b1-4)GlcNAc(b1-6)]Gal(b1-4)GlcNAc. A digest of the protocol: as §1
The target in assay [15] is Gal(b1-4)GlcNAc(b1-3)[GlcNAc(b1-6)]Gal(b1-4)GlcNAc. A digest of the protocol:
as §1

The target in assay [16] is Gal(b1-4)GlcNAc(b1-6)Gal(b1-4)GlcNAc. A digest of the protocol: as §1
In assay [17] the target is Gal(b1-4)GlcNAc(b1-6)GalNAc. A digest of the protocol: as §1
For assay [18], the target named is Gal(b1-4)GlcNAc(b1-6)[Gal(b1-3)]GalNAc. The procedure, abridged: as §1
Assay [19] addresses Gal(b1-4)GlcNAc(b1-6)[Gal(b1-4)GlcNAc(b1-3)]GalNAc. The procedure, abridged:
as §1

The target of a further assay is Gal(b1-4)GlcNAc6P. The procedure, abridged: as §1
A further assay deals with Gal(b1-6)Gal. A digest of the protocol:
as §1

The target of the next assay is Gal3S(b1-3)GalNAc. The procedure, abridged: as §1
For a further assay, the target named is Gal3S(b1-3)GlcNAc. The procedure, abridged:
as §1

B1: XTP3-B-MRH1 (Homo sapiens), Q96DZ1 (protein)
chain: LLEPLFKQSSCSYRIESYWTYEVCHGKHIRQYHEEKETGQKINIHEYYLGNMLAKNLLFEKEREAEEKEKSNEIPTKNIEGQMTPYYPVGMGNGTPCSLKQNRPRSSTVMYICHPESKHEILSVAEVTTCEYEVVILTPLLCSHPKYRFRA
Take B1: the “glycan array binding signal (z-score)” value is -0.342 in assay [1]; 0.319 in [2]; 1.37 in assay [3]; 0.499 in [4]; -0.69 in assay [5]; 0.11 in [6]. For the same molecule, the “glycan array binding signal (z-score)” value in [7] was 0.082; in assay [8], -1.07; in assay [9], 1.07; in assay [10], -1.11; in assay [11], 1.64; in assay [12], -0.205. The “glycan array binding signal (z-score)” value is -0.36 in assay [13]; -1.12 in [14]; -0.819 in [15]; -1.39 in assay [16]; 0.007 in assay [17]; -0.431 in assay [18]. Besides, the “glycan array binding signal (z-score)” value in assay [19] is -0.532; with Gal(b1-4)GlcNAc6P, 0.316; in the assay with Gal(b1-6)Gal, -1.21; with Gal3S(b1-3)GalNAc it was -0.113; with Gal3S(b1-3)GlcNAc it was 0.608.
